{
  "source": "paper PMC5674221",
  "about": "“Harnessing fungal nonribosomal cyclodepsipeptide synthetases for mechanistic insights and tailored engineering” (Chemical Science, 2017)",
  "system": "Enterococcus faecalis ST:33700 (vancomycin-resistent)",
  "assay_type": "cell-based",
  "conditions": "JMRC-No. ST:33700; Supplementary Table 5",
  "data": [
    {"compound": "O=C(O)c1cn(C2CC2)c2cc(N3CCNCC3)c(F)cc2c1=O", "note": "[Ciprofloxacin, ciprofloxacin]", "values": [
      {"measurement": "Inhibition zone diameter, Enterococcus faecalis (vancomycin-resistent)", "result": 16, "unit": "F"}
    ]}
  ]
}
